Some of the results follow.
Compound: Cc1cc(ccc1-c1ccccc1)C(=O)N1CCCN(CC1)C(=O)CCl [compound 10]
Assay: probe-labelled cysteine peptide fold change vs DMSO (competition) (log2 fold change); higher = less target engagement (more negative = stronger competition)
Settings: THP-1, incubation time: 4 h
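Note: competitive profiling in live THP-1 cells: cysteine peptides tagged with an iodoacetamide desthiobiotin (IA-DTB) probe, intensity after compound treatment relative to DMSO-treated cells.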

The chains behind the UniProt entries cited, without tags or fusion partners. Where a name states a change or a piece, a line headed by the entry shows the natural chain unless it says otherwise.
UniProt Q8IX12: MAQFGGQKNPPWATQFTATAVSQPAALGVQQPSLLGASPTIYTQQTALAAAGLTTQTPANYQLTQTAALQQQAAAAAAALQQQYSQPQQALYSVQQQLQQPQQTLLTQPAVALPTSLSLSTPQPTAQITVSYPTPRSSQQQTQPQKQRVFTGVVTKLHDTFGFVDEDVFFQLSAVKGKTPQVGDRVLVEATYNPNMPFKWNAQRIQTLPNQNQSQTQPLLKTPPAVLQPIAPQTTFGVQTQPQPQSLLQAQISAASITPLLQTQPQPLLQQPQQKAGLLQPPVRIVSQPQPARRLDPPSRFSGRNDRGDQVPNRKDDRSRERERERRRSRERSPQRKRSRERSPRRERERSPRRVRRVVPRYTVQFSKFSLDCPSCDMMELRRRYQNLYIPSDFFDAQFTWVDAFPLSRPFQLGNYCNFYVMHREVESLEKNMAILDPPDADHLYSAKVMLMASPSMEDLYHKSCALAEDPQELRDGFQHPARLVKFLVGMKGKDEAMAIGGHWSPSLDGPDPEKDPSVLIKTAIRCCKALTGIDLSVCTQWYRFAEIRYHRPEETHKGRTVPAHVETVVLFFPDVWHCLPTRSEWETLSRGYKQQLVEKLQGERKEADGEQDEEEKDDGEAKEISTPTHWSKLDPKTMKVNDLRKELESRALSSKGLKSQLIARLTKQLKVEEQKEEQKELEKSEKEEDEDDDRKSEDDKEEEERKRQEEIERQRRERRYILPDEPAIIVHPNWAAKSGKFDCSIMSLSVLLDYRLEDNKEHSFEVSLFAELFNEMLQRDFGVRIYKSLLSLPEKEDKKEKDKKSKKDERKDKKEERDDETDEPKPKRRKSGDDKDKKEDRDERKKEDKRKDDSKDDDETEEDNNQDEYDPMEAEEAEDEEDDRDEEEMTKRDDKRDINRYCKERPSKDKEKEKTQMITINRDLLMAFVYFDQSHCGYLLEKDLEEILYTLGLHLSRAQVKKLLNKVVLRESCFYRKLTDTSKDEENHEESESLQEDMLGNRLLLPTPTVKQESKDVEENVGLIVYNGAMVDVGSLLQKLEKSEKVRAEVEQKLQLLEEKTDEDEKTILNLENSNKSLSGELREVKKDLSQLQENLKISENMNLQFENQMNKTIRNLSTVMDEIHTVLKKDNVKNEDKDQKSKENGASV
UniProt P17655: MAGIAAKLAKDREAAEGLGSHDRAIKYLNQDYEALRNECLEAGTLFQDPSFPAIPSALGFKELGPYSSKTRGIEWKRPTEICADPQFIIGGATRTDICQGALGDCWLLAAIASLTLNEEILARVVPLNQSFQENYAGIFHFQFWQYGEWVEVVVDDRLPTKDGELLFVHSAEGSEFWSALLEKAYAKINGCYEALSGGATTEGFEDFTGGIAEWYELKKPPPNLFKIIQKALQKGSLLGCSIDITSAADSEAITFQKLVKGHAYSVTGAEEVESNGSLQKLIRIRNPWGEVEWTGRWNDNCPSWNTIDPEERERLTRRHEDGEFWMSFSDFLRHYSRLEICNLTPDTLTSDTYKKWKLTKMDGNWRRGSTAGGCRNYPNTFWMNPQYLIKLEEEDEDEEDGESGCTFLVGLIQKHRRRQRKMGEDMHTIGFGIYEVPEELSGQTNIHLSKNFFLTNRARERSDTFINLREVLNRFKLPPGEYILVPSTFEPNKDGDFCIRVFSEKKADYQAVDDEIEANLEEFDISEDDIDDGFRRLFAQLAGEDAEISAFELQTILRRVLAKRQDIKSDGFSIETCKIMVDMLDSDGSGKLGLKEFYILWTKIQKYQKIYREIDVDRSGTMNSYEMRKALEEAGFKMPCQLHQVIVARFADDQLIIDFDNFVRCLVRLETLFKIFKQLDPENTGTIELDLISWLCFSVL
UniProt P16152: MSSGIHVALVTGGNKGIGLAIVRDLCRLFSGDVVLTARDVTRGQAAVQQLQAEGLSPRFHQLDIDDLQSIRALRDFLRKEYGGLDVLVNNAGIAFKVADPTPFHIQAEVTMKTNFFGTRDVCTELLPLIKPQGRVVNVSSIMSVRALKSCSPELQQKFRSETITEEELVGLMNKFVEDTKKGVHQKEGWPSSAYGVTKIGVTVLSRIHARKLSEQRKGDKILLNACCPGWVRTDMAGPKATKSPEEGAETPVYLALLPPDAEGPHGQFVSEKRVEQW
UniProt P49368: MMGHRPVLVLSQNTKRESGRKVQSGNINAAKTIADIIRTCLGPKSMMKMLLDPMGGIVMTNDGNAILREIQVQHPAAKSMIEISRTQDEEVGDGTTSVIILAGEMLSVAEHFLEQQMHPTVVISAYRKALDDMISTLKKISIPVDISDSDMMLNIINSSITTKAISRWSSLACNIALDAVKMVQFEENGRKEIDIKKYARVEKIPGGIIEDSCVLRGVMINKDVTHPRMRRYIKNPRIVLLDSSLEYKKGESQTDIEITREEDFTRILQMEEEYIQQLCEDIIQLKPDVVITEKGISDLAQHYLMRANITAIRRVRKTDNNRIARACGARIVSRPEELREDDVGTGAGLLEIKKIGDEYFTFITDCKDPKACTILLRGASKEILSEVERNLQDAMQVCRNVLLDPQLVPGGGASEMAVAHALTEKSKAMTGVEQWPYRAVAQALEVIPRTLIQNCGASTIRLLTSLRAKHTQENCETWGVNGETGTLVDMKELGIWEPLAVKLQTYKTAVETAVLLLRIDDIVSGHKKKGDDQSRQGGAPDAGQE
UniProt P04632: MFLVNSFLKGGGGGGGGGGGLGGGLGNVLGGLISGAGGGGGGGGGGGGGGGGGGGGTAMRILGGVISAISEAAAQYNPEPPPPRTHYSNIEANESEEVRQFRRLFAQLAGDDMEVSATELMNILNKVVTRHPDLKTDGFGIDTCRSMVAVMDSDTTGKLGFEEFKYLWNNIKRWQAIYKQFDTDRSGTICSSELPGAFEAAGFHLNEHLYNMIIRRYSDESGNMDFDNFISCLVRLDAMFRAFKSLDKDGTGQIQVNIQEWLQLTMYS
UniProt Q86X55: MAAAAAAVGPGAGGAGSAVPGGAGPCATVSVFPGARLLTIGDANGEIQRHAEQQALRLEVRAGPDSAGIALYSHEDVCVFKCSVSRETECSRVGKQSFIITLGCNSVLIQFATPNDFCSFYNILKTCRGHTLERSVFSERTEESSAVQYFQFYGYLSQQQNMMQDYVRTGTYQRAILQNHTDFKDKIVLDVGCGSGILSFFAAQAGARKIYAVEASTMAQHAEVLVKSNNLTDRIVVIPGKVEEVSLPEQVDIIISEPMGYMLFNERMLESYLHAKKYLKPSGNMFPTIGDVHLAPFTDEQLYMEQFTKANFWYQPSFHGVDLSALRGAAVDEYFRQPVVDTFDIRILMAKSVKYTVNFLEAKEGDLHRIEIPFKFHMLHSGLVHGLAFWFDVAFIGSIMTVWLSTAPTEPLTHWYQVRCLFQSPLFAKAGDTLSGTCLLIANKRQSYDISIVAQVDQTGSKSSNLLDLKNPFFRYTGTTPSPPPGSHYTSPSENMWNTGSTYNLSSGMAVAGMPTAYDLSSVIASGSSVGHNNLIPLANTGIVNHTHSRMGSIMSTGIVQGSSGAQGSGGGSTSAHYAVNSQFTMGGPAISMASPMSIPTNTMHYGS
UniProt Q8IWD4: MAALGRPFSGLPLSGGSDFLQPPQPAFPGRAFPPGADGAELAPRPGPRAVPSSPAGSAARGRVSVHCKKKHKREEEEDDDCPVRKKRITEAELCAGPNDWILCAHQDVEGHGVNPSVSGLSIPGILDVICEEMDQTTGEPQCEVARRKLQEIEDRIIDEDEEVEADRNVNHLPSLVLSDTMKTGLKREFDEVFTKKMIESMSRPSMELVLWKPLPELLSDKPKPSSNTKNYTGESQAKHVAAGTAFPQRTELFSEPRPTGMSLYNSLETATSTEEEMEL
UniProt Q96F63: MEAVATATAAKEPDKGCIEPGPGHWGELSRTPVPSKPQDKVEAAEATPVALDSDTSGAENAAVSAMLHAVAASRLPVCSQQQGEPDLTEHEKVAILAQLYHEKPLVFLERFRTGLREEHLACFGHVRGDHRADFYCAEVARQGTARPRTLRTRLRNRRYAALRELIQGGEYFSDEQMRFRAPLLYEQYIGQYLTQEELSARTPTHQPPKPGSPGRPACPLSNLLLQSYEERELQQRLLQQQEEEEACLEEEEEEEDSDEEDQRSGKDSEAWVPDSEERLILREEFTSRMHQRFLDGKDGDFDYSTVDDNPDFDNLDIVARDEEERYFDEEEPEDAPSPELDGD
UniProt Q01518, whole entry, looked up: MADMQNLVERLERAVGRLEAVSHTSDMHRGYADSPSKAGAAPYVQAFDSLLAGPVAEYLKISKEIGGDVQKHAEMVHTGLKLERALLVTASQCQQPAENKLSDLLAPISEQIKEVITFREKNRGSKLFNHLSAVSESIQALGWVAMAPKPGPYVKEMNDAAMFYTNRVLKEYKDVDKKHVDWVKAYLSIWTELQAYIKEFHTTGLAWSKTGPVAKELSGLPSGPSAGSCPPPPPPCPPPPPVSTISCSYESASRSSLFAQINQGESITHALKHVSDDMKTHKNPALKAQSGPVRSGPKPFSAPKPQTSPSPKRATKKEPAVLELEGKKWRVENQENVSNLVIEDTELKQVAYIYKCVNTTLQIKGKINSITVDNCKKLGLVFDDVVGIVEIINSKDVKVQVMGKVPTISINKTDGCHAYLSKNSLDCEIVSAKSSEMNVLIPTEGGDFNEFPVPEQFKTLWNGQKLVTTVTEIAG
UniProt Q6P1N0: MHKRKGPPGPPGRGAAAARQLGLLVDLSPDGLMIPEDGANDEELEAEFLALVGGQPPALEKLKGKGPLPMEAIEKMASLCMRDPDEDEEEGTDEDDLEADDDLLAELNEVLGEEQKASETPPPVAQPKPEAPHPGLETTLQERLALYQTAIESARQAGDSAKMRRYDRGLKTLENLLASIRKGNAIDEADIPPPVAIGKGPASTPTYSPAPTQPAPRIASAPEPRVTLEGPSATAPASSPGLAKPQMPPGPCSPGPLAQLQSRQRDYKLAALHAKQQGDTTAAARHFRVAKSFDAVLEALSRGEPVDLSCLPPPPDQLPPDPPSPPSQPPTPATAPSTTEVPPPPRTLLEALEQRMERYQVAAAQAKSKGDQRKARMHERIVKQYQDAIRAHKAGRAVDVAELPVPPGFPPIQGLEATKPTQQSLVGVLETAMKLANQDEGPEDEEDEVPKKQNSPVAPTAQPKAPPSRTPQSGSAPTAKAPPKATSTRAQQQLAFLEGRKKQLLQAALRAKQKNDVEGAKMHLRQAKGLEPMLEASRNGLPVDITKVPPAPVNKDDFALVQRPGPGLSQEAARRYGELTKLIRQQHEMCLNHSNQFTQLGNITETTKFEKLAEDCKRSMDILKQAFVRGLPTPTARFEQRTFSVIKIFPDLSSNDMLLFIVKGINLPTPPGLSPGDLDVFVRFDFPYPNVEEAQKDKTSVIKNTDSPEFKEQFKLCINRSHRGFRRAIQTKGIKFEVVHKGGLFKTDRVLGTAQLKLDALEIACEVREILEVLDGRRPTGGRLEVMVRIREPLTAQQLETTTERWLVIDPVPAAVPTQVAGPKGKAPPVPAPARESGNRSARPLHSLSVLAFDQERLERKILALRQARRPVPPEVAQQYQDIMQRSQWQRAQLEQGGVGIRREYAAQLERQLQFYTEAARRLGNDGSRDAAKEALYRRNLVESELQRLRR
UniProt P42574: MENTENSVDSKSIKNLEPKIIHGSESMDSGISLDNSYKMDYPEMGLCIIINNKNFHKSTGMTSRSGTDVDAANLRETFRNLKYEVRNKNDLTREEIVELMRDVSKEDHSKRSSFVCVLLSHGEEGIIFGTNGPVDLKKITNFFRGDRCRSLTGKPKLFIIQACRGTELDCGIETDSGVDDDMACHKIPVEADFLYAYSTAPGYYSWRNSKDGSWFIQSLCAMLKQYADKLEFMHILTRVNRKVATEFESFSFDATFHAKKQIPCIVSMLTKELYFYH
UniProt P07384: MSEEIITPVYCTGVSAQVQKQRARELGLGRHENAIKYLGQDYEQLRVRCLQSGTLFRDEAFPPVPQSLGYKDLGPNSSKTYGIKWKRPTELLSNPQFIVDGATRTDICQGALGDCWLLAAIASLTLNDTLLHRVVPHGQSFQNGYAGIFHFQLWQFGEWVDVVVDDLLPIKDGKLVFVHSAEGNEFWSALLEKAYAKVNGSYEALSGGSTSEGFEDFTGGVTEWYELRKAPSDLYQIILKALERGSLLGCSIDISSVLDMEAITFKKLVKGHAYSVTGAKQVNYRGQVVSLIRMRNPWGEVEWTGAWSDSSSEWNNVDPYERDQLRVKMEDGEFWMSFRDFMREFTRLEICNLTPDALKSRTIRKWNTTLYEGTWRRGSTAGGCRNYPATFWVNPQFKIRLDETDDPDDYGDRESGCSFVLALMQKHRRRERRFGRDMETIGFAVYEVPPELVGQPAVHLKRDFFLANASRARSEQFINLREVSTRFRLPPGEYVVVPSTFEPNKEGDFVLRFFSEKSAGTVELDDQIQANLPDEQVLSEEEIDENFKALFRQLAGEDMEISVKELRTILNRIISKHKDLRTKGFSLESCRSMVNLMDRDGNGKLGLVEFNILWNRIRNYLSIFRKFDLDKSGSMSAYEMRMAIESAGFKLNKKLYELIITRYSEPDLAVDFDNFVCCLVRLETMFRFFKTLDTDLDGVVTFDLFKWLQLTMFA

Target | probe-labelled cysteine peptide fold change (10 µM) | probe-labelled cysteine peptide fold change (50 µM)
CCT5_P48643_253_IAILTCPFEPPKPK (UniProt P48643) | -0.0429 | -0.0751
CAPZA1_P52907_157_TIDGQQTIIACIESHQFQPK (UniProt P52907) | 0.238 | 0.0986
CCP110_O43303_285_HCVSVIPDKPSLNK (UniProt O43303) | -0.205 | 0.0702
CCDC93_Q567U6_99_CPHQLEPHQIQGMDFIHIFPVVQWLVK (UniProt Q567U6) | 0.246 | 0.0898
CAPRIN1_Q14444_226_PVCGTTYK (UniProt Q14444) | 0.0847 | 0.148
CCAR1_Q8IX12_579_TVPAHVETVVLFFPDVWHCLPTR (UniProt Q8IX12) | -0.0511 | 0.0252
CAPN7_Q9Y6W3_329_DGEPEYNPCGK (UniProt Q9Y6W3) | -0.0811 | -0.247
CASP1_P29466_136_LCSLEEAQR (UniProt P29466) | 0.0436 | -0.171
CASP8_Q14790_345_CPSLAGKPK (UniProt Q14790) | -0.195 | -0.36
CCAR2_Q8N163_515_RNAETPEATTQQETDTDLPEAPPPPLEPAVIARPGCVNLSLHGIVEDR (UniProt Q8N163) | 0.107 | -0.245
CAPN2_P17655_498_DGDFCIR (UniProt P17655) | 0.239 | 0.0316
CARD9_Q9H257_402_ADELQLQVFQCEAQLLAVEGR (UniProt Q9H257) | 0.18 | 0.639
CCNB2_O95067_314_VAAAASCLSQK (UniProt O95067) | 0.174 | 0.0564
CASP8_Q14790_312+313_IYQLMDHSNMDCFICCILSHGDK (UniProt Q14790) | 0.0393 | -0.506
CASP4_P49662_336+337_YSWCCHLEEVFR (UniProt P49662) | -0.236 | -0.828
CCAR1_Q8IX12_539_ALTGIDLSVCTQWYR (UniProt Q8IX12) | -0.272 | 0.0717
CBR1_P16152_122_DVCTELLPLIK (UniProt P16152) | 0.109 | 0.509
CCAR2_Q8N163_515_PGCVNLSLHGIVEDR (UniProt Q8N163) | 0.199 | 0.0744
CCNK_O75909_23_ENSSPSVTSANLDHTKPCWYWDK (UniProt O75909) | -0.0903 | -0.254
CASP8AP2_Q9UKL3_1647_MGHSDEVADECFK (UniProt Q9UKL3) | -0.515 | -0.339
CCAR1_Q8IX12_744_SGKFDCSIMSLSVLLDYR (UniProt Q8IX12) | 0.107 | 0.256

Single records, from the list above. Order of values: probe-labelled cysteine peptide fold change (10 µM)	probe-labelled cysteine peptide fold change (50 µM)
CASP8AP2_Q9UKL3_1647_MGHSDEVADECFK (UniProt Q9UKL3) in the list: -0.515	-0.339
CCNB2_O95067_314_VAAAASCLSQK (UniProt O95067) in the list: 0.174	0.0564

The list continues:

Target | probe-labelled cysteine peptide fold change (10 µM) | probe-labelled cysteine peptide fold change (50 µM)
CCDC22_O60826_369_TLGVSFVQAESECR (UniProt O60826) | 0.0275 | 0.105
CAP2_P40123_378_VNSIIIDNCKK (UniProt P40123) | 0.189 | 0.136
CCDC47_Q96A33_283_EMQDLSEFCSDKPK (UniProt Q96A33) | -0.0254 | 0.053
CARS_P49589-3_81_HIEALLGSPCGK (UniProt P49589) | 0.154 | -0.384
CAPZB_P47756_62_DYLLCDYNRDGDSYR (UniProt P47756) | -0.437 | -0.768
CAPZA1_P52907_141_DHYSNGFCTVYAK (UniProt P52907) | 0.236 | -0.0314
CCT3_P49368_213_IPGGIIEDSCVLR (UniProt P49368) | 0.0974 | 0.056
CAPN7_Q9Y6W3_197_AHFPLGANPFLERPQSFISPQSCDAQGQR (UniProt Q9Y6W3) | 0.0575 | -0.193
CCT3_P49368_372_ACTILLR (UniProt P49368) | 0.0214 | 0.023
CCDC88A_Q3V6T2_524_QSLQNCQNLSK (UniProt Q3V6T2) | -0.00565 | -0.0713
CARD6_Q9BX69_872_AVGKPWPQQACTR (UniProt Q9BX69) | -0.34 | -0.372
CAPNS1_P04632_232_YSDESGNMDFDNFISCLVR (UniProt P04632) | 0.31 | 0.559
CAPZA2_P47755_157_KIDGQQTIIACIESHQFQAK (UniProt P47755) | 0.062 | -0.00567
CBX8_Q9HC52_142_NMGLSPPASSTSTSSTCR (UniProt Q9HC52) | -0.187 | -0.373
CASP10_Q92851_169_IDEDNLTCLEDLCK (UniProt Q92851) | -0.0609 | 0.0728
CCNDBP1_O95273_89_FCEQVHAAIK (UniProt O95273) | -0.0837 | 0.385
CARM1_Q86X55_438_AGDTLSGTCLLIANKR (UniProt Q86X55) | 0.0227 | 0.0261
CCAR2_Q8N163_644_PLSSGGEEEEKPRGEASEDLCEMALDPELLLLR (UniProt Q8N163) | 0.345 | 0.244
CBLL1_Q75N03_109_DDTPVHFCDK (UniProt Q75N03) | 0.191 | 0.628
CBX1_P83916_156_CPQVVISFYEER (UniProt P83916) | 0.121 | -0.00934
CAST_P20810_408_AAAPAPVSEAVCR (UniProt P20810) | -0.379 | -0.127

Target | probe-labelled cysteine peptide fold change (10 µM) | probe-labelled cysteine peptide fold change (50 µM)
CBLL1_Q75N03_172_GSLFMCSIVQGCK (UniProt Q75N03) | -0.0741 | 0.219
CCDC117_Q8IWD4_81_REEEEDDDCPVR (UniProt Q8IWD4) | -0.0553 | -0.115
CCDC88B_A6NC98_1222_ESNQQLDLSACR (UniProt A6NC98) | -0.343 | -0.637
CARS2_Q9HA77_387_GQLACGSVR (UniProt Q9HA77) | 0.0295 | 0.06
CCDC97_Q96F63_17_GCIEPGPGHWGELSR (UniProt Q96F63) | -0.153 | 0.137
CCDC91_Q7Z6B0_424_SLSSLELFLSCAQK (UniProt Q7Z6B0) | 0.113 | -0.107
CASP1_P29466_364_LIEHMQEYACSCDVEEIFR (UniProt P29466) | -0.0222 | -0.0786
CAP1_Q01518_416_VQVMGKVPTISINKTDGCHAYLSK (UniProt Q01518) | -0.358 | -0.816
CCDC58_Q4VC31_10_AAPSGGVNCEEFAEFQELLK (UniProt Q4VC31) | -0.613 | 0.41
CAPN2_P17655_301_WNDNCPSWNTIDPEER (UniProt P17655) | 0.0916 | 0.0041
CCDC25_Q86WR0_83_ANSIQGCK (UniProt Q86WR0) | -0.163 | -0.303
CBR1_P16152_226+227_ILLNACCPGWVR (UniProt P16152) | -0.0566 | -0.378
CCT4_P50991_295_TGCNVLLIQK (UniProt P50991) | -0.0149 | 0.222
CASP2_P42575_270_VTDSCIVALLSHGVEGAIYGVDGK (UniProt P42575) | 0.0725 | -0.183
CCDC86_Q9H6F5_127_CSQDQGVLASELAQNK (UniProt Q9H6F5) | 0.123 | -0.256
CARM1_Q86X55_438_AGDTLSGTCLLIANK (UniProt Q86X55) | 0.0534 | 0.146
CCDC25_Q86WR0_71_EVLMDCAHLVK (UniProt Q86WR0) | 0.138 | 0.173
CC2D1A_Q6P1N0_590_QQHEMCLNHSNQFTQLGNITETTKFEK (UniProt Q6P1N0) | 0.112 | -0.472
CC2D1B_Q5T0F9_809_LENECEIREIVEVLDGR (UniProt Q5T0F9) | -0.139 | -0.00926
CCDC106_Q9BWC9_184_DADGVLCR (UniProt Q9BWC9) | -0.208 | -0.715
CASP1_P29466_362+364_LIEHMQEYACSCDVEEIFRK (UniProt P29466) | -0.0851 | -0.556

Quoted from the listing:
CC2D1A_Q6P1N0_590_QQHEMCLNHSNQFTQLGNITETTKFEK (UniProt Q6P1N0) – probe-labelled cysteine peptide fold change (10 µM): 0.112
CCDC25_Q86WR0_83_ANSIQGCK (UniProt Q86WR0) – probe-labelled cysteine peptide fold change (10 µM): -0.163
CC2D1B_Q5T0F9_809_LENECEIREIVEVLDGR (UniProt Q5T0F9) – probe-labelled cysteine peptide fold change (50 µM): -0.00926
CCDC97_Q96F63_17_GCIEPGPGHWGELSR (UniProt Q96F63) – probe-labelled cysteine peptide fold change (50 µM): 0.137
CCDC117_Q8IWD4_81_REEEEDDDCPVR (UniProt Q8IWD4) – probe-labelled cysteine peptide fold change (10 µM): -0.0553

Further entries:

Target | probe-labelled cysteine peptide fold change (10 µM) | probe-labelled cysteine peptide fold change (50 µM)
CASP6_P55212_113+116_IHEVSTVSHADADCFVCVFLSHGEGNHIYAYDAK (UniProt P55212) | 0.169 | -0.0859
CASP2_P42575_173+179_DGPVCLQVKPCTPEFYQTHFQLAYR (UniProt P42575) | -0.255 | -0.681
CCAR2_Q8N163_238_VHLTPYTVDSPICDFLELQR (UniProt Q8N163) | -0.114 | 0.0774
CCT3_P49368_366_KIGDEYFTFITDCK (UniProt P49368) | 0.221 | -0.148
CBX3_Q13185_177_LTWHSCPEDEAQ (UniProt Q13185) | -0.338 | -0.285
CAPN7_Q9Y6W3_704_WSGQSAGGCGNFQETHK (UniProt Q9Y6W3) | -0.0984 | -0.113
CBR1_P16152_226_ILLNACCPGWVR (UniProt P16152) | -0.103 | -0.297
CAPNS1_P04632_232_RYSDESGNMDFDNFISCLVR (UniProt P04632) | 0.00384 | 0.171
CAP1_Q01518_93_ALLVTASQCQQPAENK (UniProt Q01518) | -0.00677 | 0.0761
CASP3_P42574_220_DGSWFIQSLCAMLK (UniProt P42574) | -0.437 | 0.0855
CAPN1_P07384_678_YSEPDLAVDFDNFVCCLVR (UniProt P07384) | 0.0508 | 0.152
CCAR1_Q8IX12_465_SCALAEDPQELRDGFQHPAR (UniProt Q8IX12) | -0.264 | -0.235
CASP3_P42574_116_RSSFVCVLLSHGEEGIIFGTNGPVDLKK (UniProt P42574) | -0.0144 | -0.0837
CAP1_Q01518_93_ALLVTASQCQQPAENKLSDLLAPISEQIK (UniProt Q01518) | 0.0176 | 0.108
CAPN1_P07384_590_GFSLESCR (UniProt P07384) | 0.0856 | -0.0349
CARD19_Q96LW7_7_TDQTYCDR (UniProt Q96LW7) | 0.414 | 0.465
CAST_P20810-2_228_YRELLAKPIGPDDAIDALSSDFTCGSPTAAGK (UniProt P20810) | -0.219 | -0.995
CASP2_P42575_179_DGPVCLQVKPCTPEFYQTHFQLAYR (UniProt P42575) | -0.458 | -0.354
CCDC97_Q96F63_122_TGLREEHLACFGHVR (UniProt Q96F63) | 0.345 | 0.477
CCAR2_Q8N163_644_GEASEDLCEMALDPELLLLR (UniProt Q8N163) | 0.228 | 0.188

— the supplement of paper PMC12067093, “Discovery and optimisation of a covalent ligand for TRIM25 and its application to targeted protein ubiquitination” (Chemical Science, 2025)
